Drawing on PubChem BioAssay AID188 (DTP/NCI, 2004), this text covers survivor count for seven compounds.

The test system of this test is CD2F1 mice, nontumored, toxicity/survival. In words: NCI In Vivo Anticancer Drug Screen. Data for tumor model Nontumored Animals (Toxicity Test) in CD2F1 (CDF1) mice.
The mark [1] stands for this setting: dose: 1.0 mg/kg/injection, schedule: Q01DX001 (ip), vehicle: DMSO.
The mark [2] stands for this setting: dose: 10.0 mg/kg/injection, schedule: Q01DX001 (ip), vehicle: DMSO.
[3] abbreviates: dose: 100.0 mg/kg/injection, schedule: Q01DX001 (ip), vehicle: DMSO.

The mice bore no tumour; each value counts animals alive of those treated. Survivors were counted at the toxicity check, usually on the fifth day, unless a day is given; later deaths do not show. Schedules are NCI's codes, read here as Q, the interval in days (D) or hours (H), X, the number of doses.

Turning to `c1ccc([C@H]2CN3CCSC3=N2)cc1`, the survivor count is given as 3 of 3 (dose: 8.0 mg/kg/injection, schedule: Q01DX001 (ip), vehicle: saline); 4 of 4 (dose: 11.5 mg/kg/injection, schedule: Q01DX005 (ip), vehicle: saline); 3 of 3 (dose: 14.0 mg/kg/injection, schedule: Q01DX001 (ip), vehicle: saline); 4 of 4 (dose: 19.0 mg/kg/injection, schedule: Q01DX005 (ip), vehicle: saline); 3 of 3 (dose: 23.0 mg/kg/injection, schedule: Q01DX001 (ip), vehicle: saline); 0 of 4 (dose: 32.0 mg/kg/injection, schedule: Q01DX005 (ip), vehicle: saline). In addition, the survivor count was 3 of 3 (dose: 38.0 mg/kg/injection, schedule: Q01DX001 (ip), vehicle: saline); 0 of 3 (dose: 50.0 mg/kg/injection, schedule: Q01DX001 (ip), vehicle: saline); 0 of 3 (dose: 100.0 mg/kg/injection, schedule: Q01DX001 (ip), vehicle: saline); 0 of 3 (dose: 200.0 mg/kg/injection, schedule: Q01DX001 (ip), vehicle: saline); 0 of 3 (dose: 300.0 mg/kg/injection, schedule: Q01DX001 (ip), vehicle: saline); 0 of 3 (dose: 500.0 mg/kg/injection, schedule: Q01DX001 (ip), vehicle: saline). Moreover, the survivor count (dose: 1000.0 mg/kg/injection, schedule: Q01DX001 (ip), vehicle: saline) is on record as 0 of 3.

As to `COc1ccc2c(c1OC(C)=O)-c1cc(O)cc3c1C(C2)N(C(=O)CN(CCCl)CCCl)CC3` (stereo not given), the survivor count under setting [1] was 2 of 2, the survivor count under setting [2] is 2 of 2 and the survivor count under setting [3] is 2 of 2.

Regarding `Nc1nc(N)c2nc(-c3ccc(Cl)c(Cl)c3)c(N)nc2n1`, the survivor count reads like this: (dose: 1.0 mg/kg/injection, schedule: Q01DX001 (ip), vehicle: water) 2 of 2; (dose: 10.0 mg/kg/injection, schedule: Q01DX001 (ip), vehicle: water) 2 of 2; (dose: 100.0 mg/kg/injection, schedule: Q01DX001 (ip), vehicle: water) 2 of 2.

Consider `OCN(CO)c1nc(CCC(Br)(Br)Br)nc(N(CO)CO)n1`, for which the survivor count is given as 2 of 2 (dose: 1.0 mg/kg/injection, schedule: Q01DX001 (ip), vehicle: distilled water + Tween-80); 2 of 2 (dose: 10.0 mg/kg/injection, schedule: Q01DX001 (ip), vehicle: distilled water + Tween-80); 2 of 2 (dose: 100.0 mg/kg/injection, schedule: Q01DX001 (ip), vehicle: distilled water + Tween-80).

With `CCCCCCCCCCCCCCCC(=O)OCC1OC(n2ccc(N)nc2=O)C(O)C1O` (stereo not given), the survivor count is 10 of 10 (dose: 125.0 mg/kg/injection, schedule: Q01DX001 (ip), vehicle: saline with Tween-80) and 10 of 10 (dose: 150.0 mg/kg/injection, schedule: Q01DX001 (ip), vehicle: saline with Tween-80).

Turning to `COC1=CC=C2[C@@H]3Cc4ccc(OC)c5c4[C@]2(CCN3CCCl)C1O5` (stereo not given in full), the survivor count under setting [1] is 2 of 2, the survivor count under setting [2] is 2 of 2 and the survivor count under setting [3] is recorded as 2 of 2.

Take `OCCNc1ncc2ccccc2c1-c1ccc(N(CCO)CCO)cc1`: the survivor count is recorded as 2 of 2 under setting [1], 2 of 2 under setting [2] and 2 of 2 under setting [3].
